{"source": "patent US20180313836A1", "key": {"[1]": {"biological_target": "T1, GST-Nrp1 b1b2 domain (res. Phe273-Glu586) (Homo sapiens (Human)) (UniProt O14786)", "T1 sequence": "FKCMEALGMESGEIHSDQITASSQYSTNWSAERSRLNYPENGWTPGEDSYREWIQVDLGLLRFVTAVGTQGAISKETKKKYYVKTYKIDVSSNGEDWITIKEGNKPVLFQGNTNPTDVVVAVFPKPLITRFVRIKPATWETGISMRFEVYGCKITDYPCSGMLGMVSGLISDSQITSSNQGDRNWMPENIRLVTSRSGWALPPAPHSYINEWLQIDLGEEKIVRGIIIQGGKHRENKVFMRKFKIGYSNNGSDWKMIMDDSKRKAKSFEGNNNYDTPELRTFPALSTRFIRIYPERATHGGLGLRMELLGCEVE", "test": "in vitro pull-down on the Nrp1 b domains: L129P GlyRS 0, 19.3, 64.5, 193, 645 nM against 25 nM VEGF-A165"}, "[2]": {"biological_target": "T2, Recombinant rat Nrp1-Fc extracellular domain-Fc chimera (R&D systems) (rat) (UniProt Q9QWJ9)", "T2 sequence (looked up)": "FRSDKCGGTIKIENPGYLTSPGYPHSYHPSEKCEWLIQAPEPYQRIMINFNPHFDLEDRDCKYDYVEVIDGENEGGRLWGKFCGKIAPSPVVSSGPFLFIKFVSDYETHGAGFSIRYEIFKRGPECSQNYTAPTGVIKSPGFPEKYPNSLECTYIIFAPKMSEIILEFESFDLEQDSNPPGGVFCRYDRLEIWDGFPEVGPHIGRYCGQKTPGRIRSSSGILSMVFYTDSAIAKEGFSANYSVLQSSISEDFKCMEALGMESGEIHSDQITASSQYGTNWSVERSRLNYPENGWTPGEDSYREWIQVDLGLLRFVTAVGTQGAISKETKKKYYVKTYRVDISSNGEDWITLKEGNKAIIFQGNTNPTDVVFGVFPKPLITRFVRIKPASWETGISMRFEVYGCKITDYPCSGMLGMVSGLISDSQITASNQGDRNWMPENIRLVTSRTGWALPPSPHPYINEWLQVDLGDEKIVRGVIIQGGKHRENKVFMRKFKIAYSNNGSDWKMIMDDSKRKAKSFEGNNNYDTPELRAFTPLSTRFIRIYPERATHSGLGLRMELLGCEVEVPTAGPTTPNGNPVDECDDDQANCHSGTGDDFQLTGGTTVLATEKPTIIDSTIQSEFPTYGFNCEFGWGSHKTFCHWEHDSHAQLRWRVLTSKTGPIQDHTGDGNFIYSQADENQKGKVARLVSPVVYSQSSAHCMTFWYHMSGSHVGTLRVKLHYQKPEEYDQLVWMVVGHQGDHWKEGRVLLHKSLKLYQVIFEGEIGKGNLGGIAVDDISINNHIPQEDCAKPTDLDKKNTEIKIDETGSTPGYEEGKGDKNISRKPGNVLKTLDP", "test": "in vitro pull-down, Nrp1-Fc on Protein G beads, anti-GlyRS blot"}, "[3]": {"biological_target": "T2, Recombinant rat Nrp1-Fc extracellular domain-Fc chimera (R&D systems) (rat)", "test": "in vitro pull-down with the ectodomain of Nrp1 (FIG. 4B)"}, "[4]": {"biological_target": "T1, GST-Nrp1 b1b2 domain (res. Phe273-Glu586) (Homo sapiens (Human))", "test": "in vitro pull-down, competitor VEGF-A165 (FIGS. 4D-4E)"}, "[5]": {"biological_target": "T2, Recombinant rat Nrp1-Fc extracellular domain-Fc chimera (R&D systems) (rat)", "test": "in vitro pull-down, Nrp1-Fc on Protein G beads (FIG. 3A)"}, "[6]": {"biological_target": "T3, GST-Nrp1 b1 domain (res. Phe273-Asp428) (Homo sapiens (Human)) (UniProt O14786)", "T3 sequence": "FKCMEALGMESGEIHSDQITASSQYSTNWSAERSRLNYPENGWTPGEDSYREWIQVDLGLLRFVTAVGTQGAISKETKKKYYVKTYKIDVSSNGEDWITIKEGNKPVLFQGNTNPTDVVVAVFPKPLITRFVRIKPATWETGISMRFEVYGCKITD", "test": "GST pull-down: GST-Nrp1 domain fusions on GST resin, non-tagged GlyRS, blot GlyRS"}, "[7]": {"biological_target": "T1, GST-Nrp1 b1b2 domain (res. Phe273-Glu586) (Homo sapiens (Human))", "test": "GST pull-down: GST-Nrp1 domain fusions on GST resin, non-tagged GlyRS, blot GlyRS"}}, "note": "These are yes or no findings as the source states them, for the method shown. For part of these data: Binding can be weak; no strength is given. Where a sequence is shown, tags or fusion partners need not be part of it. For part of these data: Binding seen in cells or lysates may run through a third protein."}
{"substance": "human glycyl-tRNA synthetase L129P (L129P-GlyRS^CMT2D) (enzyme)", "values": [{"measurement": "binding", "setting": "[1]", "result": "binds"}, {"measurement": "binding", "setting": "[2]", "result": "binds"}, {"measurement": "binding", "setting": "[3]", "result": "binds"}, {"measurement": "binding", "setting": "[4]", "result": "binds"}, {"measurement": "binding", "setting": "[5]", "result": "binds"}]}
{"substance": "human glycyl-tRNA synthetase E71G (E71G GlyRS^CMT2D) (enzyme)", "values": [{"measurement": "binding", "setting": "[2]", "result": "binds"}, {"measurement": "binding", "setting": "[3]", "result": "binds"}]}
{"substance": "human glycyl-tRNA synthetase, wild type (GlyRS^WT) (enzyme)", "values": [{"measurement": "binding", "setting": "[6]", "result": "no binding"}, {"measurement": "binding", "setting": "[7]", "result": "no binding"}, {"measurement": "binding", "setting": "[2]", "result": "binds"}]}
{"substance": "human glycyl-tRNA synthetase G240R (G240R GlyRS^CMT2D) (enzyme)", "values": [{"measurement": "binding", "setting": "[2]", "result": "binds"}, {"measurement": "binding", "setting": "[3]", "result": "binds"}]}
